Results on 2 substances are retold here after PMC9051092.

Chains of the proteins cited; added tags and fusions are not shown.
UniProt Q86WV6: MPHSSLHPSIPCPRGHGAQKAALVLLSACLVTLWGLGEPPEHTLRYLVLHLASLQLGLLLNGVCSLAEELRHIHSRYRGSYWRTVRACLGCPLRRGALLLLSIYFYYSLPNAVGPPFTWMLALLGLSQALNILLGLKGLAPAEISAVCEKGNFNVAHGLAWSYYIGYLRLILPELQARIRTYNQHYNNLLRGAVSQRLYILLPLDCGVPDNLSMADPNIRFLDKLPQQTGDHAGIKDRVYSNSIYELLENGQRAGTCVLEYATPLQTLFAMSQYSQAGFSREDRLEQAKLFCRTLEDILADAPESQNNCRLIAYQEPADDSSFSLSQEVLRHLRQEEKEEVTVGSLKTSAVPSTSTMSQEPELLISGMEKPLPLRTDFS
UniProt P53621: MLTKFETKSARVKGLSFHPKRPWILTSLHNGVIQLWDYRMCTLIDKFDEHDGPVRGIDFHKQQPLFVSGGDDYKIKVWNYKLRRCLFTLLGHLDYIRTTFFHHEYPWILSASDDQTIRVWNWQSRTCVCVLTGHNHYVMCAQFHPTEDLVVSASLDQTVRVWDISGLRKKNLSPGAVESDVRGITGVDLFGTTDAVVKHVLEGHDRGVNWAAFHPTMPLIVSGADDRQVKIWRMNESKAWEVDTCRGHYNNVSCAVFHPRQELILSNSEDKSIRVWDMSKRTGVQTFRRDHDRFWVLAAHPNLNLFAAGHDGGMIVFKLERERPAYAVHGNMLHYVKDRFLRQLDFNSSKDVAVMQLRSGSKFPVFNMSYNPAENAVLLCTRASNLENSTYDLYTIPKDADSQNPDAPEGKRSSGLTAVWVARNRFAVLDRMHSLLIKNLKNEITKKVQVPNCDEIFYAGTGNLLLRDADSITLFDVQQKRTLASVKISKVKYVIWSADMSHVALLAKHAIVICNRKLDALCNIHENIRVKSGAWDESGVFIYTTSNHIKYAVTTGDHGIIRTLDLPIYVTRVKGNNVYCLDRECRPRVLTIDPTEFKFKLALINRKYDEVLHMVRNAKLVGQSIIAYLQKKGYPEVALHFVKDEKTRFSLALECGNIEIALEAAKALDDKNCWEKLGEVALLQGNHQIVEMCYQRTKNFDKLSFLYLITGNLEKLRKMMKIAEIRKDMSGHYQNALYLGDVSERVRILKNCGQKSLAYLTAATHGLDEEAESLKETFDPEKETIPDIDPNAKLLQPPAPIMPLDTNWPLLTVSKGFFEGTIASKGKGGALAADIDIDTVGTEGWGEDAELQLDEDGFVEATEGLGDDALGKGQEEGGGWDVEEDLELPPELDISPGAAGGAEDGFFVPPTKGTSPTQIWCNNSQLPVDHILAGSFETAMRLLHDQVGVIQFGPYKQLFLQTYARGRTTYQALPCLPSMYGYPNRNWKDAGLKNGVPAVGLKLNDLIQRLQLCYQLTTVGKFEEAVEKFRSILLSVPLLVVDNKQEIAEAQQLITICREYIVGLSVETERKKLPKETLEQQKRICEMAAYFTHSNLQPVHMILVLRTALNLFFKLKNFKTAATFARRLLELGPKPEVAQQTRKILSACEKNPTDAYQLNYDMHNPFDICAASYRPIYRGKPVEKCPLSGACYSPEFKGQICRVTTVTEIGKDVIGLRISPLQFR
UniProt O15260: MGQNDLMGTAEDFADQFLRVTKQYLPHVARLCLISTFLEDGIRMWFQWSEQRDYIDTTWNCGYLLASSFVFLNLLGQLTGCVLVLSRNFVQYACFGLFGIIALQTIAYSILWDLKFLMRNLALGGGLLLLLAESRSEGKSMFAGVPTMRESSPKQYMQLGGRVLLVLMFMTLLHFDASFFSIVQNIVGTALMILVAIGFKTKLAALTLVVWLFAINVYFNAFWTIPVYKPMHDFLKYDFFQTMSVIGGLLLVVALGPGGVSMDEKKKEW

In this experiment the target is mCitrine (mCit)-tagged human STING (human) (UniProt Q86WV6). Kind of experiment: affinity purification with mass spectrometry; mCit-STING transiently overexpressed in HEK293T (48 hrs), lysis in 1% NP-40 buffer (20 mM Tris-HCl pH 7.4, 150 mM NaCl), IP with anti-GFP antibody cross-linked to Protein A Dynabeads, 2 hrs at 4 °C, four washes; label-free quantification against empty vector control, n = 3 independent IPs.

No constants are given. Whether binding was seen depends on the method and setting. Binding seen in cells or lysates may run through a third protein. A yes stands for co-enrichment or nearness to the bait. Other partners may have been found.

Consider “COPA (coatomer complex I subunit alpha) (from UniProt P53621 1-1224)”, for which the binding entry is “binds”.
As for SURF4 (from UniProt O15260 1-269), the entry is “binds”.
